Read-outs that look alike come from different tables or passages of the source.
Target: M^Pro (Severe acute respiratory syndrome coronavirus 2, UniProt P0DTD1)
Experiment: biochemical
Conditions: for Hill Slope: Hill coefficient of IC50 curve, four-parameter fit

| Compound | IC50 | Hill Slope | IC50 (read-out: IC50) |
| --- | --- | --- | --- |
| CC(C)(C)c1ccc(C(=O)CCCN2CCC(OC(c3ccccc3)c3ccccc3)CC2)cc1 [Ebastine] | < 100 µM | 1.5 ± 0.2 | 57 ± 12 µM |
| Clc1ccc(CO/N=C(\Cn2ccnc2)c2ccc(Cl)cc2Cl)c(Cl)c1 [Oxiconazole] | < 100 µM | 3.8 ± 0.4 | 99 ± 6 µM |

Reference: patent US11806332B2, “Compositions and methods for inhibition of SARS-CoV-2 viral infections” (priority 2020, dated 2023)
